{
  "sequences": {"note": "By UniProt entry, the sequences of proteins in these tests, tags left out. Where a name states a change or a piece, a line headed by the entry shows the natural chain unless it says otherwise.", "UniProt P18075": "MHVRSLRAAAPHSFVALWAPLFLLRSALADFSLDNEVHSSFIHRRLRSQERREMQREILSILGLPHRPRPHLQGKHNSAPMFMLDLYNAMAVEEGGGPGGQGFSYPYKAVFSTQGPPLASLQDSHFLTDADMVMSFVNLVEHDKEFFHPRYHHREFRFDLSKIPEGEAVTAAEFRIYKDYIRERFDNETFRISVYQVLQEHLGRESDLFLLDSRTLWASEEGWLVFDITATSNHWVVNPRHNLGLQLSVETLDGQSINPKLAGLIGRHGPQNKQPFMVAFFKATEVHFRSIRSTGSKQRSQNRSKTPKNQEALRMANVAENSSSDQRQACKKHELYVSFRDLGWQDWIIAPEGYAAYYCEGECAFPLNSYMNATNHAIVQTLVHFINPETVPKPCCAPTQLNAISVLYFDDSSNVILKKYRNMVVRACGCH"},
  "source": "patent US6407060",
  "biological_target": "mature OP-1 dimer (human) (UniProt P18075)",
  "assay": "co-purification from CHO conditioned medium without denaturants (Zn-IMAC, S-Sepharose, Sephacryl S-200HR gel filtration); complex elutes at apparent 110 kDa",
  "note": "Results are given in words; binding and its absence hold for the method and conditions named. In cells and extracts the contact can be indirect. Some entries that bind do so weakly or less than the wild type.",
  "data": [
    {"substance": "OP-1 pro-domain (from UniProt P18075 30-292)", "values": [
      {"measurement": "binding", "result": "binds"}
    ]}
  ]
}
